Data source: PubChem BioAssay AID1259308 (NCATS, 2017)
In all, the deposit lists about 59,000 reagents; this is an unselected part. About 1,510 of them (2.6%) were called active. 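Calls use total luciferase alone and ignore viability, so some active siRNAs may act by altering cell number.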 Entries without a mark were called inactive. Reagents against one gene are numbered here.

- Screen: 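Candidate targets for better recombinant protein yield in mammalian cells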 (primary screen)
- System: human HEK293 embryonic kidney cells stably expressing firefly luciferase (HEK-CMV-Luc2-Hygro)
- Reagents: single siRNA against human genes, 0.8 pmol siRNA per well
- Duration: 72 h
- Measurement: 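Luciferase light (ONE-Glo) measured on one replicate plate set and viability (CellTiter-Glo) on the other, scaled to a negative control siRNA, with robust z-scores and luciferase per cell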
- Reading the numbers: total luciferase, z-score and total luciferase, % of control: higher = more reporter protein produced; luciferase per cell, z-score: higher = more reporter output per viable cell; viable cells, % of control: higher = more viable cells
- Hit rule: 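Active when the median/MAD z-score for overall luciferase is greater than 3; a gene was taken forward for validation with new siRNAs if at least two of its three siRNAs passed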
- Meaning of the calls: active = raised luciferase; inactive = no rise

no.	Gene	siRNA no.	total luciferase, z-score	total luciferase, % of control	luciferase per cell, z-score	viable cells, % of control
1	NSD1	1	-0.922	63.6	0.625	60.3
2	NSD1	2	1.41	110	1.18	90.1
3	NSD1	3	-0.652	68.9	0.178	73.5
4	BMS1P1	1	0.974	101	0.429	101
5	BMS1P1	2	-0.209	77.7	-0.675	104
6	BMS1P1	3	1.08	103	0.0311	115
7	NOP58	1	2.45	131	2.8	69.9
8	NOP58	2	-1.97	42.6	-1.99	80.5
9	NOP58	3	-1.73	47.5	-1.95	88.7
10	PPP1R12C	1	1.92	120	3.1	59.3
11	PPP1R12C	2	-0.172	78.5	-0.813	109
12	PPP1R12C	3	0.0648	83.2	1.28	66.3
13	TAS2R50	1	0.21	86.1	0.385	86.9
14	TAS2R50	2	2.02	122	1.48	92.4
15	TAS2R50	3	-0.332	75.3	1.42	57.9
16	NCK2	1	-0.775	66.5	-0.889	93.9
17	NCK2	2	-1.73	47.4	-1.72	83.4
18	NCK2	3	1.2	106	0.435	105
19	HIGD2A	1	-0.262	76.7	0.642	72.3
20	HIGD2A	2	0.662	95.1	1.03	80.9
21	HIGD2A	3	0.399	89.8	0.115	97.4
22	SERHL2	1	0.27	87.3	0.129	94.2
23	SERHL2	2	4.39 (active)	169	3.15	82.5
24	SERHL2	3	-0.776	66.4	-0.518	85.1
25	CACTIN	1	0.792	97.6	2.43	57.5
26	CACTIN	2	1.78	117	1.71	83.4
27	CACTIN	3	1.13	104	3.73	43.7
28	ZNF555	1	0.244	86.7	-0.114	99.9
29	ZNF555	2	0.357	89	-0.3	108
30	ZNF555	3	0.759	97	0.249	101
31	LYZL1	1	0.312	88.1	0.0207	97.9
32	LYZL1	2	0.548	92.8	-0.508	118
33	LYZL1	3	0.454	90.9	0.36	92.4
34	TRIM50	1	0.00314	81.9	-0.201	96.5
35	TRIM50	2	-0.0705	80.5	-0.179	94.3
36	TRIM50	3	0.122	84.3	0.928	73.8
37	PGM5	1	-0.214	77.6	-0.229	92.2
38	PGM5	2	3.14 (active)	144	3.5	64.2
39	PGM5	3	1.52	112	0.611	107
40	SLC18B1	1	-0.287	76.2	-0.43	95.3
41	SLC18B1	2	1.7	116	1.64	83.9
42	SLC18B1	3	1.43	110	1.13	91.6
43	MCPH1	1	-0.679	68.4	-0.828	95
44	MCPH1	2	-0.365	74.6	-0.634	98.5
45	MCPH1	3	-1.27	56.6	-0.649	75.1
46	ACHE	1	1.81	118	1.09	99
47	ACHE	2	0.742	96.6	0.369	98
48	ACHE	3	-0.546	71	-0.866	99.7
49	IKZF3	1	-0.6	70	-0.955	101
50	IKZF3	2	0.519	92.2	0.619	87.5
51	IKZF3	3	0.36	89	0.201	94.4
52	CD63	1	0.707	96	1.48	72.6
53	CD63	2	-0.247	77	0.577	73.9
54	CD63	3	-0.602	69.9	-0.35	85.7
55	SNX8	1	-0.0728	80.4	0.0569	88.5
56	SNX8	2	-0.151	78.9	-0.631	104
57	SNX8	3	2.9	140	2.65	77.5

Hits, among the entries above:
Gene	siRNA no.	total luciferase, z-score	total luciferase, % of control	luciferase per cell, z-score	viable cells, % of control
SERHL2	2	4.39 (active)	169	3.15	82.5
PGM5	2	3.14 (active)	144	3.5	64.2
